Measured values published in paper PMC3564997.
These are yes or no findings as the source states them, for the method shown. Some binding calls cover weakened binding; strength is not graded here.

Biological target: T1, Trichoderma reesei LAE1 (Trichoderma reesei) (UniProt G0RNN3)
T1 sequence: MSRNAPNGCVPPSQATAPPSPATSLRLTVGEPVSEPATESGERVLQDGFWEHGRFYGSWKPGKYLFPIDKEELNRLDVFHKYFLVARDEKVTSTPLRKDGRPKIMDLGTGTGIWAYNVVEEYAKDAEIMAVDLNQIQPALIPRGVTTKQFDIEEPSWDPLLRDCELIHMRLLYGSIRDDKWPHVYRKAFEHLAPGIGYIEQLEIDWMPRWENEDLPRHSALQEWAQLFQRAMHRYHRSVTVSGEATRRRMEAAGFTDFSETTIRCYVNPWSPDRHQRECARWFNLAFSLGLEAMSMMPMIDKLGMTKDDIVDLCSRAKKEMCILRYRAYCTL
Assay: two-hybrid; LAE1/LaeA as bait in pTLex3, VEL1/VeA as prey in pGAD424, S. cerevisiae reporter strain L40; six transformants of each combination tested for coloration on -UTL medium containing X-Gal

B1: Trichoderma reesei VEL1 (protein, UniProt G0RL42 1-573)
chain: MATPSSVASSSSRDQVQRIHRVTRENRHLWYQLTVLQQPERARACGSGMKANSDRRPVDPPPVVELRIIEGPSVEEGKDITFDYNANFFLYASLEQARTIAHGRVQNGATNNPPILTGVPASGMAYLDRPTEAGYFIFPDLSVRHEGYFRLSFSLYETTKEPKDFDLEPADSDLPPGVDWRMEIKTQPFNVFSAKKFPGLMESTSLSKTVADQGCRVRIRRDVRMRKRDGKGSGFDRRGEEEYSRRRTVTPAPAEDPNLRARSVSNASEHRGPYMPQEPPRRPSAAESYHAPPPLPPPPPSSYDAPPPAARPGHLGFGGDHNMPPQYGAPAARPYGHPQSAPIPPATPTGPYPTSSAAPSPYAKQDHHHQQQYSYNSRPPAPSASPAPPMKHAMYDNRPSEPYVPHSSPSVYASTERRPSYANYSAPAPYSTPASQPTYSTPASQPTYSTPASQPTYSAPPPAPYSAPAPPPPRPSMSQSSLAPLKIASLVSPLPPIEAQTEPLPPPPMLSTGGKRKHDHVFSQNHKPLYNGQRQLDAHYGHGYRGLTPEPDQGLYSRADGQIGVVTFNQYQV
In the case of B1, the binding is reported as “binds”.

B2: Aspergillus nidulans VeA (protein, UniProt C8VTV4 1-573)
chain: MATLAAPPPPLGESGNSNSVSRITREGKKITYKLNIMQQPKRARACGQGSKSHTDRRPVDPPPVIELNIFESDPHDDSNKTDITFVYNANFFLFATLEPERPIATGKLMTNQGSPVLTGVPVAGVAYLDKPNRAGYFIFPDLSVRNEGSYRFSFHLFEQIKDPKDATEGTQPMPSPVPGKLSSPQEFLEFRLEVISNPFIVYSAKKFPGLTTSTPISRMIAEQGCRVRIRRDVRMRRRGDKRTEDYDYDNERGYNNRRPDQYAGSDAYANAPERPRSTSISTNMDPYSYPSRRPSAVEYGQPIAQPYQRPMASTPAPSSTPIPAPIPMPGPVALPPSTPSPASAHAPAPPSVPLAAPPPLHTPSYQSHLSFGATQTQYPAPQLSHIPQQTTTPTHPYSPRSSISHSRNQSISEYEPSMGYPGSQTRLSAERPSYGQPSQTTSLPPLRHSLEPSVNSRSKTPSNMITSLPPIQSLSELPSTTSQPSSAIGSSPANEPGPRLWETNSMLSKRTYEESFGHDDRPLYNGMRPDSESYPGGMQRRPSYERSSLLDGPDQMAYKRANGRMVSKPATMR
In the case of B2, the binding is reported as “no binding”.
